# Test results taken from PubChem BioAssay AID248 (DTP/NCI, 2004).
# The list shows only some results of the screen, not a fair sample: it gathers tests that were run many times, whatever their T/C, doses with no T/C, and many T/C values between a quarter and a half above the control. Other doses and runs of a compound stand elsewhere. T/C is the treated group as % of the vehicle group. Some entries give survivors of the animals treated and no T/C: the source files T/C as zero there, which appears to mark a toxic dose or a test without result, not a measured value. Some survivor counts are full or nearly so, which does not show that the dose was tolerated: the source hardly ever lists a survival T/C far under the control, and the zero likely stands for such cases as well. Survivors were counted at the toxicity check, usually on the fifth day, unless a day is given; later deaths do not show. Schedules are NCI's codes, taken here to give the interval after Q, in days (D) or hours (H), and the number of doses after X. Some schedule codes hold Z or #, which are not explained here. Some molecules as drawn cover several salts, stereoisomers or complexes of the source; a dose is that of the sample tested. For survival time, this PubChem deposit counts one and a half times the control or more as active, and values a quarter to a half above the control carry no call in these data; other NCI protocols may use other cut-offs.
# Tested on: L1210 leukemia ip in BDF1 mice, survival T/C
# Assay: NCI In Vivo Anticancer Drug Screen. Data for tumor model L1210 Leukemia (intraperitoneal) in B6D2F1 (BDF1) mice
# Settings: T/C endpoint: mean survival time, higher T/C = longer survival
# [1] = dose: 200.0 mg/kg/injection, schedule: Q01DX001 (ip), vehicle: saline
# [2] = dose: 400.0 mg/kg/injection, schedule: Q01DX001 (ip), vehicle: saline
# [3] = dose: 400.0 mg/kg/injection, schedule: Q04DX003 (ip), vehicle: saline with Tween-80
# [4] = dose: 400.0 mg/kg/injection, schedule: Q04DX002 (ip), vehicle: saline
# [5] = dose: 400.0 mg/kg/injection, schedule: Q01DX009 (ip), vehicle: saline with Tween-80
# [6] = dose: 25.0 mg/kg/injection, schedule: Q01DX001 (ip), vehicle: saline with Tween-80
# [7] = dose: 50.0 mg/kg/injection, schedule: Q01DX001 (ip), vehicle: saline with Tween-80
# [8] = dose: 100.0 mg/kg/injection, schedule: Q01DX001 (ip), vehicle: saline with Tween-80
# [9] = dose: 200.0 mg/kg/injection, schedule: Q01DX001 (ip), vehicle: saline with Tween-80
# [10] = dose: 400.0 mg/kg/injection, schedule: Q01DX001 (ip), vehicle: saline with Tween-80
# [11] = dose: 100.0 mg/kg/injection, schedule: Q01DX009 (ip), vehicle: saline with Tween-80
# [12] = dose: 200.0 mg/kg/injection, schedule: Q01DX009 (ip), vehicle: saline with Tween-80
compound,measurement,setting,value
CCOC(OCC)C(=O)C(C#N)c1ccc(Cl)c(Cl)c1 (centres undefined),survivor count,"dose: 100.0 mg/kg/injection, schedule: Q01DX001 (ip), vehicle: saline",0 of 6
same,survivor count,[1],0 of 6
same,survivor count,[2],0 of 6
Cn1c(=O)c2c(nc(OC3CCCC3)n2C)n(C)c1=O,survivor count,"dose: 400.0 mg/kg/injection, schedule: Q01DX001 (ip), vehicle: other",2 of 4
Nc1c(I)cc(C(=O)O)c(O)c1I,survivor count,[3],1 of 6
COc1ccc(OC)c(CCc2cc(OC)ccc2OC)c1,survivor count,"dose: 100.0 mg/kg/injection, schedule: Q04DX003 (ip), vehicle: other",6 of 6
same,survivor count,"dose: 200.0 mg/kg/injection, schedule: Q04DX003 (ip), vehicle: other",6 of 6
same,survivor count,"dose: 400.0 mg/kg/injection, schedule: Q04DX003 (ip), vehicle: other",6 of 6
C/C(Cl)=C/C(=O)O,T/C,"dose: 100.0 mg/kg/injection, schedule: Q04DX002 (ip), vehicle: saline",132 % of control
same,survivor count,[4],2 of 3
CCCCCCCCc1ccc(O)c(Cl)c1,survivor count,[5],6 of 6
CC1(C)N=C(N)N=C(N)N1c1ccccc1F,survivor count,"dose: 150.0 mg/kg/injection, schedule: Q01DX001 (ip), vehicle: saline",3 of 6
same,survivor count,"dose: 150.0 mg/kg/injection, schedule: Q01DX009 (ip), vehicle: saline",3 of 6
same,survivor count,"dose: 300.0 mg/kg/injection, schedule: Q01DX009 (ip), vehicle: saline",0 of 6
c1ccc(N=Nc2ccncc2)cc1,survivor count,"dose: 100.0 mg/kg/injection, schedule: Q04DX003 (ip), vehicle: saline with Tween-80",0 of 6
same,survivor count,"dose: 200.0 mg/kg/injection, schedule: Q04DX003 (ip), vehicle: saline with Tween-80",0 of 6
same,survivor count,[3],0 of 6
NC(N)=N/N=C(\C=N\N=C(N)N)c1ccc(-c2ccc(C(/C=N/N=C(N)N)=N\N=C(N)N)cc2)cc1,survivor count,"dose: 15.0 mg/kg/injection, schedule: Q01DX Z (ip), vehicle: saline",1 of 6
same,survivor count,"dose: 30.0 mg/kg/injection, schedule: Q01DX Z (ip), vehicle: saline",0 of 6
same,survivor count,"dose: 60.0 mg/kg/injection, schedule: Q01DX Z (ip), vehicle: saline",0 of 6
same,survivor count,"dose: 120.0 mg/kg/injection, schedule: Q01DX Z (ip), vehicle: saline",0 of 6
CCCOCC(O)C[As](=O)(O)c1cccc(Cl)c1 (centres undefined),survivor count,[6],4 of 6
same,survivor count,[7],0 of 6
same,survivor count,[8],0 of 6
same,survivor count,[9],0 of 6
same,survivor count,[10],0 of 6
CC(C)CC(NC(=O)OCc1ccccc1)C(=O)NC(Cc1ccccc1)C(=O)CCl (centres undefined),survivor count,"dose: 200.0 mg/kg/injection, schedule: Q04DX003 (ip), vehicle: Klucel (hydroxypropylcellulose) (HPC)",5 of 6
same,survivor count,"dose: 400.0 mg/kg/injection, schedule: Q04DX003 (ip), vehicle: Klucel (hydroxypropylcellulose) (HPC)",4 of 6
N#CCCCC(=O)c1ccccc1,survivor count,[11],3 of 6
same,survivor count,[12],2 of 6
same,survivor count,[5],0 of 6
Cc1ccc2cccnc2c1N (tested in a mixture with another compound),survivor count,"dose: 50.0 mg/kg/injection, schedule: Q01DX009 (ip), vehicle: DMSO",4 of 6
same,survivor count,"dose: 100.0 mg/kg/injection, schedule: Q01DX009 (ip), vehicle: DMSO",1 of 6
same,survivor count,"dose: 200.0 mg/kg/injection, schedule: Q04DX003 (ip), vehicle: DMSO",6 of 6
same,survivor count,"dose: 400.0 mg/kg/injection, schedule: Q04DX003 (ip), vehicle: DMSO",4 of 6
O=C/C=C\c1ccccc1O,survivor count,[2],0 of 6
O=C(c1ccccc1)C(O)(CC(c1ccccc1)[P+](c1ccccc1)(c1ccccc1)c1ccccc1)c1ccccc1 (centres undefined),survivor count,"dose: 7.0 mg/kg/injection, schedule: Q01DX009 (ip), vehicle: saline",2 of 6
same,survivor count,"dose: 14.0 mg/kg/injection, schedule: Q01DX009 (ip), vehicle: saline",1 of 6
same,survivor count,"dose: 50.0 mg/kg/injection, schedule: Q01DX009 (ip), vehicle: Klucel (hydroxypropylcellulose) (HPC)",1 of 6
same,survivor count,[8],5 of 6
same,survivor count,[9],5 of 6
CC1C[N-]CC(C)C1.CC1C[N-]CC(C)C1.CC1C[N-]CC(C)C1.CC1C[N-]CC(C)C1.[Cl][Rh][Cl] (centres undefined),survivor count,"dose: 12.5 mg/kg/injection, schedule: Q01DX009 (ip), vehicle: gum acacia",5 of 6
same,survivor count,"dose: 25.0 mg/kg/injection, schedule: Q01DX009 (ip), vehicle: gum acacia",5 of 6
same,survivor count,"dose: 50.0 mg/kg/injection, schedule: Q01DX009 (ip), vehicle: gum acacia",1 of 6
same,survivor count,"dose: 50.0 mg/kg/injection, schedule: Q04DX003 (ip), vehicle: gum acacia",6 of 6
same,survivor count,"dose: 100.0 mg/kg/injection, schedule: Q04DX003 (ip), vehicle: gum acacia",5 of 6
same,survivor count,"dose: 200.0 mg/kg/injection, schedule: Q04DX003 (ip), vehicle: gum acacia",2 of 6
same,survivor count,"dose: 400.0 mg/kg/injection, schedule: Q04DX003 (ip), vehicle: gum acacia",1 of 6
CC(C)N(CCC(=O)CC12CC3CC(CC(C3)C1)C2)C(C)C,survivor count,"dose: 200.0 mg/kg/injection, schedule: Q04DX002 (ip), vehicle: saline",0 of 3
same,survivor count,[4],0 of 3
CCN1CCc2cc3c(cc2C1)OCO3,survivor count,"dose: 100.0 mg/kg/injection, schedule: Q01DX001 (ip), vehicle: carboxymethylcellulose (CMC)",2 of 6
same,survivor count,"dose: 200.0 mg/kg/injection, schedule: Q01DX001 (ip), vehicle: carboxymethylcellulose (CMC)",0 of 6
same,survivor count,"dose: 400.0 mg/kg/injection, schedule: Q01DX001 (ip), vehicle: carboxymethylcellulose (CMC)",0 of 6
CN(C)CCN(Cc1ccccc1)c1ccccn1,survivor count,"dose: 300.0 mg/kg/injection, schedule: Q01DX001 (ip), vehicle: carboxymethylcellulose (CMC)",0 of 6
Clc1ccc(/C=C/c2ccccc2)cc1,T/C,"dose: 100.0 mg/kg/injection, schedule: Q01DX001 (ip), vehicle: other",127 % of control
OC12CCCCC1C[n+]1ccccc1C2 (centres undefined),survivor count,[1],2 of 4
same,survivor count,[2],0 of 4
C/C(Cc1ccccc1)=N/N(C)C,survivor count,[5],0 of 6
CCC[CH2][Sn](=[O])[CH2]CCC,survivor count,"dose: 12.5 mg/kg/injection, schedule: Q01DX001 (ip), vehicle: saline with Tween-80",0 of 3
same,survivor count,[6],1 of 3
same,survivor count,[7],1 of 3
same,survivor count,[8],0 of 3
same,survivor count,[9],0 of 3
same,survivor count,[10],0 of 3
CSC(=S)NNC(=O)c1ccc([N+](=O)[O-])cc1,survivor count,"dose: 25.0 mg/kg/injection, schedule: Q04DX003 (ip), vehicle: saline sonified",6 of 6
same,survivor count,"dose: 100.0 mg/kg/injection, schedule: Q04DX003 (ip), vehicle: saline",3 of 6
same,survivor count,"dose: 200.0 mg/kg/injection, schedule: Q04DX003 (ip), vehicle: saline",2 of 6
same,survivor count,"dose: 400.0 mg/kg/injection, schedule: Q04DX003 (ip), vehicle: saline",0 of 6
O=C1C[C@H]2[C@H](CO)[C@@H](OC(=O)c3ccc(-c4ccccc4)cc3)C[C@H]2O1,survivor count,[11],0 of 6
same,survivor count,[12],4 of 6
same,survivor count,[5],1 of 6
CC(C)NC(=O)c1cc(NC(=O)c2ccc(C(=O)Nc3cc(C(=O)NC(C)C)cc(C4=NCCN4)c3)cc2)cc(C2=NCCN2)c1,survivor count,"dose: 75.0 mg/kg/injection, schedule: Q01DX015 (ip), vehicle: water",2 of 6
same,survivor count,"dose: 150.0 mg/kg/injection, schedule: Q01DX015 (ip), vehicle: water",0 of 6
CCCCCCCCCCCCCC[S+](C)C,survivor count,"dose: 50.0 mg/kg/injection, schedule: Q01DX009 (ip), vehicle: saline",2 of 6
